# Some of the results follow. The main result of the screen is listed elsewhere. These columns were measured beside it and carry no call. Most of these compounds were active or inconclusive in the main read-out, so they are no random draw. The note in brackets gives the kind of curve behind each potency; many fits are weak.
# Assay: qHTS Assay for Lipid Storage Modulators in Drosophila S3 Cells;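 on cell number change: cells counted by Cell Tracker Red CMTPX staining in the red channel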
# Settings: BODIPY lipid droplet fluorescence, 18-24 h; for cell number change: measured here: cell count max response, cells fed with added oleic acid
# In short: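 Laser-scanning cytometry quantifies lipid droplet accumulation (500–530 nm total intensity; droplet/cell object ratio) in oleic acid-fed (400 uM added) Drosophila S3 cells treated with a concentration series. 20 uM Triacsin C defined 100% inhibition.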
# [1] = measured here: cell number channel AC50, cells fed with added oleic acid
# [2] = measured here: lipid fluorescence (Fed channel) AC50, cells fed with added oleic acid
Compound,cell number change,AC50 [1],AC50 [2]
COc1ccc(CCNC(=O)CCN2C(=O)[C@@H]3Cc4ccccc4CN3C2=O)cc1,30.7%,"29.1 µM [rising, single point]","29.1 µM [rising, single point]"
CCOC(=O)Oc1ccc2c(=O)c(Oc3cc(C)cc(C)c3)coc2c1,3.68%,,"0.411 µM [rising, full curve, poor fit]"
C/C(=N\NC(=O)c1ccc(N2CCCC2=O)cc1)c1ccncc1,22.5%,,"9.2 µM [rising, partial curve]"
c1ccn2cc(C34CC5CC(CC(C5)C3)C4)nc2c1,27.8%,,"29.1 µM [rising, single point]"
COc1ccc(C(c2oc(CO)cc(=O)c2O)c2oc(CO)cc(=O)c2O)cc1,-19.2%,"1.46 µM [rising, partial curve]","1.46 µM [rising, partial curve]"
Oc1ccccc1-c1cc(-c2ccccc2Cl)[nH]n1,-74.2%,"29.1 µM [falling, single point]","29.1 µM [falling, single point]"
Cn1c(SCC2CCCCC2)nnc1-c1ccncc1,32.5%,"29.1 µM [rising, single point]",
Cc1cccc(NC(=O)c2nc(-c3ccccc3)n(-c3ccccc3)n2)c1C,16.7%,"6.51 µM [rising, single point]","0.651 µM [rising, full curve]"
CC(C)Cn1c(N)c(C(=O)COC(=O)c2cc(C(F)(F)F)nc3c(C(F)(F)F)cccc23)c(=O)n(C)c1=O,19%,,"18.4 µM [rising, partial curve]"
CN1/C(=C/c2cccc[n+]2C)Sc2ccccc21,-27%,,"29.1 µM [falling, single point]"
C#CCN1C(=O)C(O)(c2c(C)[nH]c3ccccc23)c2ccccc21 (centres undefined),1.45%,,"5.8 µM [rising, full curve, poor fit]"
O=C(C1CCCN(Cc2cc(Br)ccc2O)C1)N1CCCCC1 (centres undefined),-7.21%,,"0.103 µM [falling, full curve, poor fit]"
CCOCCCNC(=O)C(c1ccc(C)cc1)N1CCOCC1 (centres undefined),2.35%,,"0.13 µM [falling, full curve, poor fit]"
N=C1/C(=C/c2cccn2Cc2ccc(F)cc2)C(=O)N=C2SC=CN12,0.113%,,"1.84 µM [rising, partial curve, poor fit]"
CCn1c(COc2cccc3ccccc23)nnc1SCC(N)=O,-152%,"23.1 µM [falling, partial curve]","23.1 µM [falling, partial curve]"
COc1cc(C2SCC(=O)N2Cc2ccccc2)ccc1O (centres undefined),,"0.651 µM [rising, partial curve, poor fit]",
O=S(=O)(/N=C(/NS(=O)(=O)c1ccccc1)c1ccccc1)c1ccccc1,-13.7%,,"0.461 µM [falling, full curve]"
C/C(=N/N=C(/N)SCc1ccccc1)C(C)(C)C,19.6%,,"7.31 µM [rising, partial curve]"
O=C1C(Cl)=C(N2CCCC2)C(=O)N1c1ccc(F)cc1,-13.6%,,"7.31 µM [falling, partial curve, poor fit]"

# Eleven entries from above, arranged by count of non-hydrogen atoms, smallest number first:
Compound,cell number change,AC50 [1],AC50 [2]
CN1/C(=C/c2cccc[n+]2C)Sc2ccccc21,-27%,,"29.1 µM [falling, single point]"
c1ccn2cc(C34CC5CC(CC(C5)C3)C4)nc2c1,27.8%,,"29.1 µM [rising, single point]"
Cn1c(SCC2CCCCC2)nnc1-c1ccncc1,32.5%,"29.1 µM [rising, single point]",
COc1cc(C2SCC(=O)N2Cc2ccccc2)ccc1O (centres undefined),,"0.651 µM [rising, partial curve, poor fit]",
O=C(C1CCCN(Cc2cc(Br)ccc2O)C1)N1CCCCC1 (centres undefined),-7.21%,,"0.103 µM [falling, full curve, poor fit]"
C#CCN1C(=O)C(O)(c2c(C)[nH]c3ccccc23)c2ccccc21 (centres undefined),1.45%,,"5.8 µM [rising, full curve, poor fit]"
CCOC(=O)Oc1ccc2c(=O)c(Oc3cc(C)cc(C)c3)coc2c1,3.68%,,"0.411 µM [rising, full curve, poor fit]"
O=S(=O)(/N=C(/NS(=O)(=O)c1ccccc1)c1ccccc1)c1ccccc1,-13.7%,,"0.461 µM [falling, full curve]"
Cc1cccc(NC(=O)c2nc(-c3ccccc3)n(-c3ccccc3)n2)c1C,16.7%,"6.51 µM [rising, single point]","0.651 µM [rising, full curve]"
COc1ccc(CCNC(=O)CCN2C(=O)[C@@H]3Cc4ccccc4CN3C2=O)cc1,30.7%,"29.1 µM [rising, single point]","29.1 µM [rising, single point]"
CC(C)Cn1c(N)c(C(=O)COC(=O)c2cc(C(F)(F)F)nc3c(C(F)(F)F)cccc23)c(=O)n(C)c1=O,19%,,"18.4 µM [rising, partial curve]"

# Additional entries

Compound,cell number change,AC50 [1],AC50 [2]
CCCCn1c(SCC(=O)Nc2nccs2)nc2ccccc2c1=O,18.1%,,"18.4 µM [rising, single point]"
CN1CCCN(C(=O)c2c(F)cccc2Cl)CC1,,,"0.651 µM [falling, partial curve, poor fit]"
COC(=O)C1=C(CSCc2ccco2)NC(=O)NC1c1cc(C)ccc1C (centres undefined),-3.12%,,"6.51 µM [rising, single point]"
Cc1ccc(CN2C(=O)C(CC(C)C)Nc3ncnc(N4CCN(c5ccccn5)CC4)c32)cc1 (centres undefined),19.5%,,
COc1ccc(OC)c(S(=O)(=O)Nc2ccccc2C)c1,14.5%,,"3.26 µM [rising, single point]"
CCOc1cccc2sc(N(CCN(C)C)C(=O)c3ccc4c(c3)OCCO4)nc12,3.92%,,
C/C(=N\NC(=O)c1ccc(N2CCCC2=O)cc1)c1ccccc1,1.9%,,
Cc1onc(-c2ccc(Cl)cc2)c1-c1ccnn1S(=O)(=O)c1ccc(Cl)cc1,30.2%,"0.146 µM [rising, full curve, poor fit]",
O=C(Nc1cc(SCC(O)CO)cc([N+](=O)[O-])c1)c1ccc(-n2cnnn2)cc1 (centres undefined),33.6%,"29.1 µM [rising, single point]",
C/C(CC(=O)NC1CCCC1)=N\NC(=O)c1ccc([N+](=O)[O-])c(Cl)c1,-1.42%,,"0.651 µM [rising, full curve, poor fit]"
O=C(Nc1cc(Cl)ccc1N1CCCC1)C1=COCCO1,16.3%,,
COc1ccc(Cl)cc1N1CCN(CCNC(=O)Nc2ccccc2C)CC1,,,"6.51 µM [rising, single point]"
Cc1ccc(NC(=O)Nc2ccccc2C(=O)NCc2ccccc2)cc1,20%,"3.66 µM [rising, single point]","2.91 µM [rising, full curve]"
COc1ccc(-c2nc(C#N)c(NCCCN3CCOCC3)o2)cc1,,,"6.51 µM [rising, single point]"
COc1cc2nc(SCC(=O)NCCc3ccccc3)n(Cc3ccco3)c(=O)c2cc1OC,-18.1%,,"2.06 µM [rising, full curve, poor fit]"
CC[n+]1c(/C=C/Nc2ccccc2)oc2ccc(OC)cc21,8.89%,,"7.31 µM [falling, partial curve, poor fit]"
CCOC(=O)c1ccc(CNCc2ccc(Br)cc2)cc1,-3.2%,,"16.4 µM [rising, partial curve]"
COc1ccc(NC(=O)CN(C)S(=O)(=O)c2ccc3c(c2)n(C)c(=O)c(=O)n3C)cc1,-5.6%,"6.51 µM [falling, single point]","6.51 µM [rising, single point]"
Cc1nn(CC(=O)N(C)Cc2ccc(F)cc2)c(C)c1[N+](=O)[O-],6.46%,,

# Source: PubChem BioAssay AID2685 (National Center for Advancing Translational Sciences (NCATS), 2010)
